Where a name gives a salt, the structure may show the parent alone. The list shows a part of the results. The calls rarely recur for the same compound in another form.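 Kinases were expressed as nanoluciferase fusions in K562 cells and luminescence was read every 4 h between 2 and 18 h as percent of control, DMSO set to 100% and a positive control to 0%. A time point counts as decreased when the signal drops significantly (2 sigma). The hit call is the authors' own, does not follow from the count of time points alone, and its rule is not shown.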
Legend:
Test in all cases: number of time points (of 5) at which kinase-Nluc abundance scored as decreased, DMSO-normalised (count); higher = more persistent destabilization
Details in all cases: K562; 2-18 h
CAMK2A = CAMK2A (UniProt Q9UQM7)
CAMK2G = CAMK2G (UniProt Q13555)
CDK10 = CDK10 (UniProt Q15131)
CDK2 = CDK2 (UniProt P24941)
CDK3 = CDK3 (UniProt Q00526)
CDK5 = CDK5 (UniProt Q00535)
CDK6 = CDK6 (UniProt Q00534)
CHEK2 = CHEK2 (UniProt O96017)
CSF1R = CSF1R (UniProt P07333)
CSK = CSK (UniProt P41240)
CSNK1A1 = CSNK1A1 (UniProt P48729)
CSNK1D = CSNK1D (UniProt P48730)
DDR1 = DDR1 (UniProt Q08345)
DYRK1B = DYRK1B (UniProt Q9Y463)
DYRK2 = DYRK2 (UniProt Q92630)
EGFR = EGFR (UniProt P00533)
EGFR_G719S = EGFR_G719S (UniProt P00533)
EGFR_G719S_T790M = EGFR_G719S_T790M (UniProt P00533)
EGFR_L718V = EGFR_L718V (UniProt P00533)
EGFR_L858R = EGFR_L858R (UniProt P00533)

Amino acid sequences for entries named in this document (tags omitted). A change or cut given only in a name is not applied to a line headed by its entry.
UniProt Q9UQM7, whole entry: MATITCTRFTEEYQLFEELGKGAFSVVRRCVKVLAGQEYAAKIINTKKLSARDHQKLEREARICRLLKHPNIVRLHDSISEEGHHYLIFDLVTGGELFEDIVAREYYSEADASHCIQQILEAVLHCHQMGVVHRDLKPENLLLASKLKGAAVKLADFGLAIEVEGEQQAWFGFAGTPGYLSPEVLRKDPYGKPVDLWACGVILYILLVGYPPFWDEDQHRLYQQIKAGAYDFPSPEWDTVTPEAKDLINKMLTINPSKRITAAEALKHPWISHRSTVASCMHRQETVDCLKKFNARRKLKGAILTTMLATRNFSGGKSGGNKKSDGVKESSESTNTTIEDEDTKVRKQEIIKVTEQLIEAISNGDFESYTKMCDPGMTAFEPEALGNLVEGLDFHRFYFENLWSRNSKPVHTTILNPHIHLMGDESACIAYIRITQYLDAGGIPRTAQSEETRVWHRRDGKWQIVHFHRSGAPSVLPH
UniProt Q13555: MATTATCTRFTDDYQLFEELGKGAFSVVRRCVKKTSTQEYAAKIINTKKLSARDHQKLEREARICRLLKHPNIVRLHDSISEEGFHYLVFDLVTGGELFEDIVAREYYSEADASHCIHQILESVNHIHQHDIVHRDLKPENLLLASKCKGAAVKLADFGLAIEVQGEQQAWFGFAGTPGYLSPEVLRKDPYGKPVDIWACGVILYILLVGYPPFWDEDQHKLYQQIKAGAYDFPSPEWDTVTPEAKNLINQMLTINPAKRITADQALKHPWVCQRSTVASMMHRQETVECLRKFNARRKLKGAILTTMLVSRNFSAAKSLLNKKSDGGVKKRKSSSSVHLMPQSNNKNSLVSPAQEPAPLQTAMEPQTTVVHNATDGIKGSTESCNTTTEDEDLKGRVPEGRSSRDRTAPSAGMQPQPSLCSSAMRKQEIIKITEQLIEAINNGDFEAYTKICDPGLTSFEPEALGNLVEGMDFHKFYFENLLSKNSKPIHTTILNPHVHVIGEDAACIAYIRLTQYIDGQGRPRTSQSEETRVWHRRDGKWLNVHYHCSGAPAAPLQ
UniProt Q15131: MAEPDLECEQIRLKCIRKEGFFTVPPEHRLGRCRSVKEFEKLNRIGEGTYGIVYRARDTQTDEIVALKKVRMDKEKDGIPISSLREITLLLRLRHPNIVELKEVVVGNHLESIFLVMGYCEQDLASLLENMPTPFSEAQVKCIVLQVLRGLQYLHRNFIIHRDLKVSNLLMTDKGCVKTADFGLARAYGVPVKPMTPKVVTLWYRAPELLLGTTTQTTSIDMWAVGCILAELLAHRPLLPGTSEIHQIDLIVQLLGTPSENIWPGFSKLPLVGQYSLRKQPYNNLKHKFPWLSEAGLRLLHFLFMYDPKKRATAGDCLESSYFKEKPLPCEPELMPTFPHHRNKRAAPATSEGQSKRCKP
UniProt Q00526: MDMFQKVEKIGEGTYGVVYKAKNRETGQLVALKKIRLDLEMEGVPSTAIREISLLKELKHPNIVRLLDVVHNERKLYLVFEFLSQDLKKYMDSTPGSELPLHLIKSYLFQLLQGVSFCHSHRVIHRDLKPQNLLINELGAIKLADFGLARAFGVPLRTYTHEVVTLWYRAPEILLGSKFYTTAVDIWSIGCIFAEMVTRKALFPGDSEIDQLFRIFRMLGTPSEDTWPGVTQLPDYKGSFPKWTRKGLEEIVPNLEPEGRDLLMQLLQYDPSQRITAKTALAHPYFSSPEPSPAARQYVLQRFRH
UniProt Q00535, whole entry, looked up: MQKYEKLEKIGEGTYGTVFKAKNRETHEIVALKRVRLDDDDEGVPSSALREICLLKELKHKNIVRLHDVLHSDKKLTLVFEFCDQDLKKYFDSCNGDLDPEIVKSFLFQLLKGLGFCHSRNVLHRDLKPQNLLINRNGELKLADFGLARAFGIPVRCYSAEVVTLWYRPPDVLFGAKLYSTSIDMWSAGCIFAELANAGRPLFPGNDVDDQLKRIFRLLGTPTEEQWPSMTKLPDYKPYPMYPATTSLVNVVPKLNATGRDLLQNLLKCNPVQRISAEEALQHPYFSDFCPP
UniProt Q00534, whole entry: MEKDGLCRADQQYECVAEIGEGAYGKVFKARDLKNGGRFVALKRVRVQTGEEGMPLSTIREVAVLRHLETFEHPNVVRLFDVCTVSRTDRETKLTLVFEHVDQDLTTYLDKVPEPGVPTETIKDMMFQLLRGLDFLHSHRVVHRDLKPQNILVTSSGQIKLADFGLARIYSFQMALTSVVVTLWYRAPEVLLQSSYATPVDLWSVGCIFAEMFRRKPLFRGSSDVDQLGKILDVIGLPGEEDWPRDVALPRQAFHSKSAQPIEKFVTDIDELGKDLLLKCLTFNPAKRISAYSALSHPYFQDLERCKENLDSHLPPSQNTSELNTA
UniProt O96017, whole entry: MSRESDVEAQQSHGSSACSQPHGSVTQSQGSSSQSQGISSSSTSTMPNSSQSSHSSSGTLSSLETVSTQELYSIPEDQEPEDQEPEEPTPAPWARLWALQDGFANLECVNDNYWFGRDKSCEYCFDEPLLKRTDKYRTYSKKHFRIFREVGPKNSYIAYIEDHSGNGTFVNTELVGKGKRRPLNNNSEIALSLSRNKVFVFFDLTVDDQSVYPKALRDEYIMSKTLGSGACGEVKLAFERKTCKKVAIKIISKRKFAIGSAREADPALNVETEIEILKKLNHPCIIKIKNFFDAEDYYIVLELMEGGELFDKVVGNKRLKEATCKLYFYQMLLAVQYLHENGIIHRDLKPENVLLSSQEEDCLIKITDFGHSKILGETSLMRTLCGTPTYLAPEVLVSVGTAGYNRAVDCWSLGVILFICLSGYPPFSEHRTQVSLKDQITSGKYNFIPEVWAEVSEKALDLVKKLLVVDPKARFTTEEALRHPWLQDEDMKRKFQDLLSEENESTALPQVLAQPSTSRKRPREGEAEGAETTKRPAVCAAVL
UniProt P07333, whole entry: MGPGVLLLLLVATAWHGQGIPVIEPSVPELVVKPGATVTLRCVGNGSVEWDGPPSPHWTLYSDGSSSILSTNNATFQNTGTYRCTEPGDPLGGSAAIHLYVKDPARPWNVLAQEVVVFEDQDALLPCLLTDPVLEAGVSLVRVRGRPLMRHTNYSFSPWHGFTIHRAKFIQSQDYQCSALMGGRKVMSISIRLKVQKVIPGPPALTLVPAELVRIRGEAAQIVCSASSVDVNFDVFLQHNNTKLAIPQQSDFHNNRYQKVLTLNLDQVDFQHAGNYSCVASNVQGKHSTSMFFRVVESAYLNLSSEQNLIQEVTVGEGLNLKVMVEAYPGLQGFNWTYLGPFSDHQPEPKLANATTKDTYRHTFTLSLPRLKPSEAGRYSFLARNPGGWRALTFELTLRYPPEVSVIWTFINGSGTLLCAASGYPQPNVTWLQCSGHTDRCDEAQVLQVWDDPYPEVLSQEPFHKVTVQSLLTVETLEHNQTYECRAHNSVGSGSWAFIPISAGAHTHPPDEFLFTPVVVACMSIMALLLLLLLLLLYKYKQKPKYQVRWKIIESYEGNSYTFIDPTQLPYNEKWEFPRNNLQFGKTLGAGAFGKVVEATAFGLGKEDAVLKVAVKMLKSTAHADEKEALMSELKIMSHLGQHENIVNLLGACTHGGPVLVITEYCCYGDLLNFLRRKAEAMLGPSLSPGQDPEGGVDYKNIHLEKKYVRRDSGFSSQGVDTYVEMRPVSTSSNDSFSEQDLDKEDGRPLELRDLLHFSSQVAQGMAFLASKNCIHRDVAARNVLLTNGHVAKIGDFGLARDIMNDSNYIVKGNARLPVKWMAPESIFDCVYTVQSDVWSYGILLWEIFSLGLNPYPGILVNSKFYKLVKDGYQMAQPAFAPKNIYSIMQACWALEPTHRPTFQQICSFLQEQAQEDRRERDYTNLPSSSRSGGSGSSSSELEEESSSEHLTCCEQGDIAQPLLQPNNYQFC
UniProt P41240: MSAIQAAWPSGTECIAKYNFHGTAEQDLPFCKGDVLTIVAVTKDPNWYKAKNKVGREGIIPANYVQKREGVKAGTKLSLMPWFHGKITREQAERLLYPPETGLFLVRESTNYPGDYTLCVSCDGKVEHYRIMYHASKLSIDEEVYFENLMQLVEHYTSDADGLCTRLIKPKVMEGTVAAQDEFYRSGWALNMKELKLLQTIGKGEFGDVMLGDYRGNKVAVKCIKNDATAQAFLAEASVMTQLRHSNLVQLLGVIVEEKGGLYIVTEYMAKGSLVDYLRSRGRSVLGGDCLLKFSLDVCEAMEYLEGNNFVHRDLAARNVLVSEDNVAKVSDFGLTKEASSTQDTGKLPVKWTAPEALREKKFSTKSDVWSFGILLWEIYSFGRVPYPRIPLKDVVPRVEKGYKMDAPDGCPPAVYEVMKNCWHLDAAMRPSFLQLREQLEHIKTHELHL
UniProt P48729: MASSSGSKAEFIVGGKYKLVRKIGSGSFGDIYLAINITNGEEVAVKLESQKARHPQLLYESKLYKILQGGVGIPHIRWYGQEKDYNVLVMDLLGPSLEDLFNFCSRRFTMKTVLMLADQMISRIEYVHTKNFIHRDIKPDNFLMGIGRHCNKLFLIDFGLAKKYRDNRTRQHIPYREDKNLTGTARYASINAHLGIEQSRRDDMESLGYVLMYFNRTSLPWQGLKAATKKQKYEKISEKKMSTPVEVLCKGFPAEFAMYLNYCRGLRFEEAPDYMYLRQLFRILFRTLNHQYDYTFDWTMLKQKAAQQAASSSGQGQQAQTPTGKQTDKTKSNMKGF
UniProt P48730: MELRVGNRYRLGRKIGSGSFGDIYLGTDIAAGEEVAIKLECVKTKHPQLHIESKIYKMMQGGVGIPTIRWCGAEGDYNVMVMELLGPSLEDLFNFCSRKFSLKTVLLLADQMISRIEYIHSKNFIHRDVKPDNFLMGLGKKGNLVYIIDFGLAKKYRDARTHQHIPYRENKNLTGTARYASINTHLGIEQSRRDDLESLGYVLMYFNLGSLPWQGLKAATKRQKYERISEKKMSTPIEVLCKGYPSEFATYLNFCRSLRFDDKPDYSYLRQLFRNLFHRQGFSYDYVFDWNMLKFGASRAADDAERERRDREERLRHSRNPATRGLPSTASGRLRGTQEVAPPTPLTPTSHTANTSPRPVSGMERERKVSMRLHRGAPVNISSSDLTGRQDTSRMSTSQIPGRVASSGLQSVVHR
UniProt Q08345: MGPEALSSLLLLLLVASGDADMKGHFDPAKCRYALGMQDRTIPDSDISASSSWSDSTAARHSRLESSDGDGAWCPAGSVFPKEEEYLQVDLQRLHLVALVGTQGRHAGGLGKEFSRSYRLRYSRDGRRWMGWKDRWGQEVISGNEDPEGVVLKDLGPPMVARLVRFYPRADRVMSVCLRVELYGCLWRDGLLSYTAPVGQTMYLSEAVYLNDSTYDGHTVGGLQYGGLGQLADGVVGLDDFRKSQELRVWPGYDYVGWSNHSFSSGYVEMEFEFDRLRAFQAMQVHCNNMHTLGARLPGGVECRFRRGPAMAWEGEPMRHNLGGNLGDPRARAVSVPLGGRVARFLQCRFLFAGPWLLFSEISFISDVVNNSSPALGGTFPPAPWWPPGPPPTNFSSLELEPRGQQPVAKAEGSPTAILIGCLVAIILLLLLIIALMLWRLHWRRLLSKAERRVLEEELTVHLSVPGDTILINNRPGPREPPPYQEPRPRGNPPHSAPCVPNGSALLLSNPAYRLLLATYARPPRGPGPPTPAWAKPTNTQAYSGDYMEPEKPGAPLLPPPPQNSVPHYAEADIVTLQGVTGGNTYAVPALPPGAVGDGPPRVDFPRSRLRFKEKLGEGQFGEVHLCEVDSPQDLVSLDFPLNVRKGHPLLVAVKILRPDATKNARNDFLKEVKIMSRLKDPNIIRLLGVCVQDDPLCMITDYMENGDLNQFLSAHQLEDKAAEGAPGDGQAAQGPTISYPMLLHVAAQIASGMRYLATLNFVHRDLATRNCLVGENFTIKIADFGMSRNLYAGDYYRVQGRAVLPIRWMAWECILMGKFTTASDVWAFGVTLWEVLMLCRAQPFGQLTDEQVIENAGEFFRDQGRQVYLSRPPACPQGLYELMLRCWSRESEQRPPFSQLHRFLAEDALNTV
UniProt Q92630: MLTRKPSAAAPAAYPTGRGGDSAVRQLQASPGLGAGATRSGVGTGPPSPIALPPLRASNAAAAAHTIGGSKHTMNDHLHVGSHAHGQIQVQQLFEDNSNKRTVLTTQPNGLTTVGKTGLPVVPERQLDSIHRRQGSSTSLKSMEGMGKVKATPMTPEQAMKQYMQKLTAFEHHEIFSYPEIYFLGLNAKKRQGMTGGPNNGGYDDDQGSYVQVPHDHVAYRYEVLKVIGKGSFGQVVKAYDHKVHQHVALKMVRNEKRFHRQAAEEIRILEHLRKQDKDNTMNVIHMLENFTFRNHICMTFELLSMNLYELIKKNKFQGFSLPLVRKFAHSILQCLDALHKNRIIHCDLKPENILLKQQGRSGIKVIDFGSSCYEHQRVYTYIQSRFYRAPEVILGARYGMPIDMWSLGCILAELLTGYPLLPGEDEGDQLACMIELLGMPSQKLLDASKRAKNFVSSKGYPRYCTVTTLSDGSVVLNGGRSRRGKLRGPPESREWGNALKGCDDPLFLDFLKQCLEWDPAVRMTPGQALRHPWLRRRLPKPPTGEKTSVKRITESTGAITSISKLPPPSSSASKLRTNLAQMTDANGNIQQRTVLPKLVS

Measured: number of time points

CCN1CCN(C(=O)Cc2ccc(Nc3ncc(F)c(Nc4ccc(C(=O)Nc5ccccc5Cl)cc4)n3)cc2)CC1 (2.5 µM)
0: all assays above

COc1ccc2c(c1)[nH]c1c(C)nccc12 [Harmine] (10 µM)
0: all assays above

O=C1c2ccccc2C(=O)c2c1cccc2-c1cnn(C2CCNCC2)c1 [PDK4-IN-1 (hydrochloride)] (10 µM)
0: all assays above

CC1C(=O)OC2C(O)C34C5OC(=O)C3(OC3OC(=O)C(O)C34C(C(C)(C)C)C5O)C12O (stereo not drawn) [Ginkgolide C] (10 µM)
0: all assays above

COc1ccc2c(c[n+](C)c3c4cc5c(cc4ccc23)OCO5)c1OC [Chelerythrine (chloride)] (10 µM)
5: CAMK2G
4: DDR1
0: all other assays above

O=c1[nH]c2ccccc2n1C1CCN(CCCC(c2ccc(F)cc2)c2ccc(F)cc2)CC1 [Pimozide] (2.5 µM)
0: all assays above

C=CC(=O)N[C@H]1C=C(C)c2c(-c3cnc4ccccc4c3)c3c(N)ncnc3n2C1 (10 µM)
0: all assays above

NCCc1cn(S(=O)(=O)c2c(Cl)nc3sccn23)c2ccccc12 (10 µM)
0: all assays above

CC(=O)OC(C)(C)/C=C/C(=O)[C@](C)(O)[C@H]1[C@H](O)C[C@@]2(C)[C@@H]3CC=C4[C@@H](C=C(O)C(=O)C4(C)C)[C@]3(C)C(=O)C[C@]12C [Cucurbitacin E] (2.5 µM)
3: EGFR_L858R
2: EGFR_G719S_T790M
4: CHEK2 | CSF1R | DYRK2
1: DYRK1B | EGFR_L718V
0: all other assays above

COc1cc2c(cc1F)C(c1ccccc1Cl)=Nc1c(n[nH]c1C)N2 (0.5 µM)
not listed: CDK5 | EGFR | EGFR_G719S | EGFR_G719S_T790M | EGFR_L718V | EGFR_L858R
0: all other assays above

O=c1cc(O)c2ccccc2o1 [4-Hydroxycoumarin] (10 µM)
0: all assays above

C/C(O)=C(\C#N)C(=O)Nc1cc(Br)ccc1Br (10 µM)
0: all assays above

COc1ccc2c(c1)/C(=C/c1cnc[nH]1)C(=O)N2 (2.5 µM)
not listed: CDK2
0: all other assays above

CC(C)=CC[C@@H](OC(=O)CC(C)(C)O)C1=CC(=O)c2c(O)ccc(O)c2C1=O [β-Hydroxyisovalerylshikonin] (2.5 µM)
0: all assays above

C[C@H](CCC(=O)O)C[C@H](C)C[C@H](C)C(=O)/C=C(\O)[C@H](C)C[C@H](C)C/C=C/[C@@H](C)[C@@H](O)[C@@H](C)[C@@H](O)C[C@@H]1CC[C@@](C)([C@H]2CC[C@@](C)([C@@H](C)O)O2)O1 [Ionomycin (calcium)] (2.5 µM)
0: all assays above

Cc1ccccc1-n1c(Cn2cnc3c(N)ncnc32)nc2cccc(C)c2c1=O (10 µM)
0: all assays above

O=[N+]([O-])/C=C/c1ccc2c(c1)OCO2 (2.5 µM)
1: DYRK1B
0: all other assays above

O=c1ccc2cc(O[C@@H]3O[C@H](CO)[C@@H](O)[C@H](O)[C@H]3O)c(O)cc2o1 [Esculin] (10 µM)
0: all assays above

COc1ccc2c(c1OC)C(OC)N(C)c1c-2ccc2cc3c(cc12)OCO3 (stereo not drawn) [Angoline] (10 µM)
0: all assays above

C[C@H](Nc1ncnc2[nH]cnc12)c1nc2ccc(F)cc2c(=O)n1-c1ccccc1 [Acalisib] (10 µM)
0: all assays above

CCCCNc1nc(N)c2[nH]c(=O)n(Cc3ccc(C)nc3)c2n1 (10 µM)
0: all assays above

O=C1C=CC[C@@H]2[C@H]3CCCN4CCC[C@@H](CN12)[C@@H]34 [Sophocarpine (monohydrate)] (2.5 µM)
0: all assays above

C[C@H]1CC[C@]2(NC1)O[C@H]1C[C@H]3[C@@H]4CC[C@H]5C[C@@H](O)CC[C@]5(C)[C@H]4CC[C@]3(C)[C@H]1[C@@H]2C [Tomatidine] (2 µM)
0: all assays above

C/C=C(/C)C(=O)O[C@H]1[C@@H]2[C@H](C)C(=O)O[C@@H]2C[C@@H](C)[C@@H]2C=CC(=O)[C@]21C [Brevilin A] (2.5 µM)
2: DYRK1B
1: CHEK2
0: all other assays above

— the supplement of paper PMC12823440, “Inhibitors supercharge kinase turnover through native proteolytic circuits” (Nature, 2025)
